Values quoted from earlier work as cited in patent publication US6153745A, “Relating to mutagenesis of nucleic acids” (Amersham Pharmacia Biotech UK Limited, priority 1995, dated 2000).
Where two headings read alike, the source gives them in different places.

Test system: adenine and guanine
Conditions: cited from earlier work

Q: What does the source list for `O=C1NC2=NOCCC2=CN1[C@H]1C[C@H](O)[C@@H](CO)O1` [P]?
A: base pairing: forms base pairs of equivalent stability with adenine and guanine; base pairing (listed as dP): pairs with adenine or guanine
